Experiment [1] addresses T1, periostin (POSTN) (mouse (endogenous in mouse TDSCs and mouse tendon tissue)) (UniProt Q62009).
T1 sequence: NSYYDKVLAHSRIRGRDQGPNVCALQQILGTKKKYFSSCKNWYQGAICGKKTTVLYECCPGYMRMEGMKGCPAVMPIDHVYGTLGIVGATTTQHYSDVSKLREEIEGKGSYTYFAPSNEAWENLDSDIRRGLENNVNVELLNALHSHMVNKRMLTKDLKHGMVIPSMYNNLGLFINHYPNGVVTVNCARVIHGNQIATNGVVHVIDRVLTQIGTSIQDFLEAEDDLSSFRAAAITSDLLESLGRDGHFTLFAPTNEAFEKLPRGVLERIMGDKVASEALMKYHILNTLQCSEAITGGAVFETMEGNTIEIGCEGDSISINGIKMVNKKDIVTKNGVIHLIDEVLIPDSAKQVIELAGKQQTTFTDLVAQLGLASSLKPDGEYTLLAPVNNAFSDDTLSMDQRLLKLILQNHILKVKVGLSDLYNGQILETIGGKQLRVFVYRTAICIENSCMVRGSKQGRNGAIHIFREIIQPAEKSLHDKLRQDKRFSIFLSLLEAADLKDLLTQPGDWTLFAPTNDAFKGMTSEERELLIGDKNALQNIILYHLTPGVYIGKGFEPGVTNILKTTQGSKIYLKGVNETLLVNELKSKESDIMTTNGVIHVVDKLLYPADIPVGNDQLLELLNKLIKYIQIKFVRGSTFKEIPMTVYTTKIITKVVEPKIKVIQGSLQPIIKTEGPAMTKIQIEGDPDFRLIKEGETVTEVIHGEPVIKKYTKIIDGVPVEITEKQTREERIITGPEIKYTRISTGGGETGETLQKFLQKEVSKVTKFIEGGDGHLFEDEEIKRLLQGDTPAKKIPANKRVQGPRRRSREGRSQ
Kind of experiment: co-IP; lysate of osteogenic induced TDSCs; antibody overnight at 4 °C, Protein A/G magnetic beads, SDS-PAGE and blot; N = 3.

The target in experiment [2] is T1, periostin (POSTN) (mouse (endogenous in mouse TDSCs and mouse tendon tissue)). Kind of experiment: co-IP; heterotopic ossified tissue (in vivo); antibody overnight at 4 °C, Protein A/G magnetic beads, SDS-PAGE and blot; N = 3.

These are yes or no findings as the source states them, for the method shown. Binding seen in cells or lysates may run through a third protein. Some entries that bind do so weakly or less than the wild type.

B1: Protein Tyrosine Kinase 7 (PTK7) (receptor, UniProt Q8BKG3 23-1062)
chain: AIVFIKEPSSQDALQGRRALLRCEVEAPDPVHVYWLLNGVPVQDTERRFAQGSSLSFAAVDRLQDSGAFQCVARDNVTGEEVRSTNASFNIKWIEAGPVVLKHPASEAEIQPQTQVTLRCHIDGHPRPTYQWFRDGTPLSDDQSTHTVSSRERNLTLRPASPEHSGLYSCCAHNAFGQACSSQNFTLSVADESFARVVLAPQDVVVARNEEAMFHCQFSAQPPPSLQWVFEDETPITNRSRPPHLRRAVVFANGSLLLTQVRPRNAGVYRCIGQGQRGPPIVLEATLHLAEIEDMLPFEPRVFIAGDEERVTCPAPQGLPTPSVWWEHAGVPLPAHGRVHQKGLELVFVTIAESDTGVYTCHASNLAGQRRQDVNITVATVPTWLRKPQDSQLEEGKPGYLHCLTQATPKPTVIWYRNQMLISEDSRFEVSKNGTLRINSVEVYDGTLYRCVSSTPAGSIEAQARVQVLEKLKFTPPPQPQQCMEFDKEATVPCSATGREKPTVKWVRADGSSLPEWVTDNAGTLHFARVTRDDAGNYTCIASNEPQGQIRAHVQLTVAVFITFKVEPERTTVYQGHTALLRCEAQGDPKPLIQWKGKDRILDPTKLGPRMHIFQNGSLVIHDVAPEDSGSYTCIAGNSCNIRHTEAPLLVVDKPVMEDSEGPGSPPPYKMIQTIGLSVGAAVAYIIAVLGLMFYCKKRCKAKRLQKQPEGEEPEMECLNGGPLQNGQPSAEIQEEVALTSLGSGPPATNKRHSAGDRMHFPRASLQPITTLGKSEFGEVFLAKAQGVEEGATETLVLVKSLQSRDEQQQLDFRREVEMFGKLNHANVVRLLGLCREAEPHYMVLEYVDLGDLKQFLRISKNKDEKLKSQPLSTKQKVALCSQVALGMEHLSNNRFVHKDLAARNCLISAQRQVKVSALGLSKDVYNSEYYHFRQAWVPLRWMSPEAVLEGDFSTKSDVWAFGVLMWEVFTHGEMPHGGQADDEVLADLQAGKARLPQPEGCPSKLYRLMQRCWAPNPKDRPSFSEIASTLGDSPADSKQ
Turning to B1, the binding result in experiment [1] and in experiment [2] was “binds” in each case.

These data come from article PMC12561399.
